This is an account of results in publication PMC4831272.

The chains behind the UniProt entries cited, without tags or fusion partners. Where a name states a change or a piece, a line headed by the entry shows the natural chain unless it says otherwise.
UniProt Q14344: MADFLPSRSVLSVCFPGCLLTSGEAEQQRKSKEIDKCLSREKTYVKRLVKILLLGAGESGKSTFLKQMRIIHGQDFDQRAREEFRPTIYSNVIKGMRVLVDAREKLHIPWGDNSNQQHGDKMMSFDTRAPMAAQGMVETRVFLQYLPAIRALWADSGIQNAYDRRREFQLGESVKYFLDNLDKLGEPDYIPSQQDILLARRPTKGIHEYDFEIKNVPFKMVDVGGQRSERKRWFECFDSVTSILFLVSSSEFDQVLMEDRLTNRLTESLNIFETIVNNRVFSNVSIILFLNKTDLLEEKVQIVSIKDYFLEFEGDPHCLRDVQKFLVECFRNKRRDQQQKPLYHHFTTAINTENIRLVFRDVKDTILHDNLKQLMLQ
UniProt Q9NPQ8: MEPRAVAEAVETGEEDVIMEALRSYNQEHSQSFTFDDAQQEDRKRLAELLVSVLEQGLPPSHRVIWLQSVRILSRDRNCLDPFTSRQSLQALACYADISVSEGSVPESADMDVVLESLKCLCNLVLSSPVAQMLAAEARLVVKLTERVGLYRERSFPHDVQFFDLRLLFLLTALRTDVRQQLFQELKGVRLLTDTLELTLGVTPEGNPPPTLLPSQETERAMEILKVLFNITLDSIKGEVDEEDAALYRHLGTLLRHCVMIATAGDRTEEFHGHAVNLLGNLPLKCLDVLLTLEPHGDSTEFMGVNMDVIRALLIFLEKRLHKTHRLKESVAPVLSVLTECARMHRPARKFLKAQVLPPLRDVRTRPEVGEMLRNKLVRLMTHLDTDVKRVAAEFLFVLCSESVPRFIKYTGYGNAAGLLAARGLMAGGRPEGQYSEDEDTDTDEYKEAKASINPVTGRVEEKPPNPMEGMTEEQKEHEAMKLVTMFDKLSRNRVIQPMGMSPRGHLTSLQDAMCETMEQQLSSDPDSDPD

Results are given in words; binding and its absence hold for the method and conditions named. In cells and extracts the contact can be indirect. Here binding means that the protein was enriched with, or labelled near, the bait; the list need not be complete.

The test deals with FS-tagged Gα13Q226L (constitutively active mutant of Gα13) (human) (UniProt Q14344). Put plainly: affinity purification with mass spectrometry; tandem affinity purification from HEK293 cells transfected with FS or FS-Gα13QL, 48 h; lysate (13 mg) on Strep-Tactin resin, eluted by desthiobiotin, then anti-FLAG M2 resin, eluted by 3 x FLAG peptide; SDS-PAGE, bands identified by MALDI-TOF; lysis buffer 50 mM Tris-Cl pH 7.4, 150 mM NaCl, 1 mM EDTA, 0.1% NP40, 5% glycerol.

Regarding “Ric-8A (Resistance to inhibitors of cholinesterase 8 homolog A), endogenous (from UniProt Q9NPQ8 1-531)”, the binding entry is on record as “binds”.
